Results reported in PubChem BioAssay AID1671190 (National Center for Advancing Translational Sciences (NCATS), 2021).
Several values for one entry are separate records, joined by “and”; a condition that tells them apart may be missing. Equal values may be shown once. Hit rate of the full screen: of about 580,000 compounds, about 6,100 (1.1%) were called active. This list was built around the results that the source calls inconclusive (neither active nor inactive); the mix of calls is not that of the screen. The call rests on the fitted dose curve; in most records, active means well fitted inhibition curve with a large enough effect; inconclusive means small, poorly fitted or top-dose-only effect, or another doubt; inactive means no such curve, though single readings can be large or run the other way. A potency beside an inconclusive call is a rough fit, not a confirmed value.

Amino acid sequences for entries named in this document (tags omitted). A change or cut given only in a name is not applied to a line headed by its entry.
UniProt P18054: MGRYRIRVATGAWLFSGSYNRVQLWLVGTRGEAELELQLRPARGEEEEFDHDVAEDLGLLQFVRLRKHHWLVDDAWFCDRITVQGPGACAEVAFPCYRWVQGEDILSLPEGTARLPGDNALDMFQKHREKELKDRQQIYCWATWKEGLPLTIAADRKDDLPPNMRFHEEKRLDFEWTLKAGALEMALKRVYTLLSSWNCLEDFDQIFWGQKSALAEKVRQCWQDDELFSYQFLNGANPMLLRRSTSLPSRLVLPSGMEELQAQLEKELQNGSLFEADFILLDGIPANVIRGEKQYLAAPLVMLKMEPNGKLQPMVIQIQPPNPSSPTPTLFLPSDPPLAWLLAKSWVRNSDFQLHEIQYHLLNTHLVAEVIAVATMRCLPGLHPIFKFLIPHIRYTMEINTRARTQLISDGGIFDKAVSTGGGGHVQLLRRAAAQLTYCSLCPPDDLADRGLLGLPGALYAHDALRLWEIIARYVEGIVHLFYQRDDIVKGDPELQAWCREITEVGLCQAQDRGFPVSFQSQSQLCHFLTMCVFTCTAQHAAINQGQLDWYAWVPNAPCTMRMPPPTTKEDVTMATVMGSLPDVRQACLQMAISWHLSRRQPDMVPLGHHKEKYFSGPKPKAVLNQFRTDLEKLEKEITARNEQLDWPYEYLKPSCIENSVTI

What follows are compounds tested against Polyunsaturated fatty acid lipoxygenase ALOX12 (Homo sapiens) (UniProt P18054) (assay: Primary qHTS assay for inhibitors of human arachidonate 12S-lipoxygenase (ALOX12): Round 2). Details: purified 12hLO, xylenol orange hydroperoxide absorbance; activity change, negative = inhibition: at 108 µM (top of the series) unless noted.
How it was run: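 Purified human 12hLO (150 nM final) in 25 mM Hepes, 0.01% Triton X-100, pH 7.0 was preincubated 15 min at room temperature with compound. Then 40 uM arachidonic acid was added, 30 min. Hydroperoxide was read by Fe-XO absorbance ratio 573/405 nm.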
On the % scale 0 is the no-effect control and ±100 the full control effect; potency means the concentration at half of the fitted maximal effect.

Row | Compound | Potency | activity change, negative = inhibition
1 | COc1cc(Cl)ccc1C(=O)N1CCC(c2n[nH]c(=O)n2Cc2ccc(F)cc2)CC1 | inconclusive: 17.8 µM [inhibitor, full curve] | –
2 | COc1ccccc1C1CN(Cc2cccc(C)n2)Cc2ccccc2O1 (stereo not given) | inconclusive: 70.8 µM [inhibitor, partial curve, poor fit] | –
3 | Cc1nn(CC(=O)Nc2ccc(Cl)c(S(=O)(=O)N(C)C)c2)c(C)c1[N+](=O)[O-] | – | inactive: -17.4%
4 | O=S(=O)([O-])C(c1ccccc1)[n+]1ccccc1 (stereo not given) | inconclusive: 112 µM [inhibitor, single point] | –
5 | Cc1nn2c(c1-c1ccccc1Oc1ccccc1)N(Cc1ccc(C(=O)O)s1)CCC2 | inconclusive: 10 µM [inhibitor, full curve, poor fit] | –
6 | COc1ccc(-c2cc(=O)oc3cc(OCC(=O)NCCN(C)C)ccc23)cc1 | inconclusive: 35.5 µM [inhibitor, single point] | –
7 | COc1ccccc1CNC(=O)COC(=O)c1cc(S(=O)(=O)N2CCOCC2)ccc1Cl | – | inactive: 11.2%
8 | Cc1ccc(C)c(NC(=O)COC(=O)COc2cccc3c2OC(C)(C)C3)c1 | inconclusive: 79.4 µM [inhibitor, partial curve, poor fit] | –
9 | CN(Cc1ccccc1)C(=O)c1cc2c(=O)n3ccccc3nc2s1 | inconclusive: 35.5 µM [inhibitor, partial curve, poor fit] | –
10 | CSc1nc(N)c2ncn([C@H]3O[C@H](COP(=O)(O)OP(=O)(O)O)[C@@H](O)[C@@H]3O)c2n1 | inconclusive: 39.8 µM [inhibitor, partial curve, poor fit] | –
11 | CCCn1nc(C(=O)Nc2nc(C)c(C(C)=O)s2)c2ccccc2c1=O | inconclusive: 44.7 µM [inhibitor, partial curve, poor fit] | –
12 | CCN1C(=NCc2ccco2)N[C@@H](c2cccc(F)c2)C(C(=O)OC)=C1C | inconclusive: 70.8 µM [inhibitor, partial curve, poor fit] | –
13 | CCN(CC(=O)NC1CCCC1)S(=O)(=O)c1ccc(C)cc1 | inconclusive: 141 µM [inhibitor, single point] | –
14 | COc1ccc(-c2nc(NC(=O)c3cc(OC)c(OC)c(OC)c3)sc2C)cc1 | active: 44.7 µM | –
15 | Cc1cccc(N2CCN(C(=O)c3c(-c4ccccc4)noc3C)CC2)c1C | – | inactive: -1.73%
16 | O=[N+]([O-])c1ccc(N/N=C2\CC3CC=CC23)cc1 (stereo not given) | inconclusive: 44.7 µM [inhibitor, partial curve, poor fit] | –
17 | O=C(NCC(O)COc1cccc(F)c1)c1ccoc1 (stereo not given) | – | inactive: 9.73%
18 | Cn1nccc1NS(=O)(=O)c1ccc(NC(=O)C(F)(F)F)cc1 | – | inactive: 131%
19 | CCOC(=O)c1c(C)[nH]c(C=Nc2ccc(OC)cc2)c1O | inconclusive: 63.1 µM [inhibitor, partial curve, poor fit] | –
20 | O=C(Nc1ccc(Br)c(Cl)c1)c1ccco1 | inconclusive: 35.5 µM [inhibitor, full curve, poor fit] | –

Pulled by compound from the entries so far (3):
Row | Compound | Potency | activity change, negative = inhibition
17 | O=C(NCC(O)COc1cccc(F)c1)c1ccoc1 (stereo not given) | – | inactive: 9.73%
13 | CCN(CC(=O)NC1CCCC1)S(=O)(=O)c1ccc(C)cc1 | inconclusive: 141 µM [inhibitor, single point] | –
6 | COc1ccc(-c2cc(=O)oc3cc(OCC(=O)NCCN(C)C)ccc23)cc1 | inconclusive: 35.5 µM [inhibitor, single point] | –

(list continues)

Row | Compound | Potency | activity change, negative = inhibition
21 | CC(C)CNc1nc(-c2ccc(S(=O)(=O)N3CCCC3)cc2)cs1 | inconclusive: 20 µM [inhibitor, full curve, poor fit] | –
22 | O=C(NC(=S)NCCc1ccccc1)c1cccc(Cl)c1 | inconclusive: 14.1 µM [inhibitor, partial curve, poor fit] | –
23 | O=C(NCc1ccc(F)cc1)c1nc(-c2ccc(Cl)cc2)c2ccccn12 | – | inactive: 18.1%
24 | O=C1SC(SC(=Nc2ccccc2)Nc2ccccc2)C(=O)N1c1ccccc1 (stereo not given) | – | inactive: -28.3%
25 | Cc1[nH]c2ccccc2c1C(=O)CSC(=S)N(C)C | inconclusive: 0.199 µM [inhibitor, full curve, poor fit] | –
26 | Cc1ccc(NC(=O)CN2CCCC2)cc1Br | inconclusive: 1.26 µM [inhibitor, full curve] | –
27 | COc1cc(C)c(CN2CCSCC2)cc1C | inconclusive: 0.501 µM [inhibitor, full curve, poor fit] | –
28 | COc1cccc(NC(=O)CN(C)C(=O)c2ccccc2OCC(=O)Nc2cccc(C(F)(F)F)c2)c1 | inconclusive: 35.5 µM [inhibitor, partial curve, poor fit] | –
29 | CN(C[C@H](c1ccccc1)N(C[C@H](Cc1ccccc1)N(CCc1ccccc1)N=O)N=O)N=O | – | inactive: -0.912%
30 | CN(Cc1nccn1C)C(=O)c1cc(COc2cccc(C(F)(F)F)c2)on1 | – | inactive: 0.881%
31 | CCC(C)(C(=O)NC1CCCCC1)N(Cc1cccs1)C(=O)c1ccc2c(c1)OCO2 (stereo not given) | inconclusive: 50.1 µM [inhibitor, partial curve, poor fit] | –
32 | Cc1cc(Sc2nnc(N)s2)c2ccccc2n1 | – | inactive: 2.76%
33 | CC(C)Cn1nnnc1SCc1coc(-c2cccc(Cl)c2)n1 | inconclusive: 56.2 µM [inhibitor, partial curve, poor fit] | –
34 | COC(=O)c1ccc(NC(=O)CSc2nc(=O)n(Cc3ccco3)c3c2CCC3)cc1 | inconclusive: 158 µM [inhibitor, partial curve, poor fit] | –
35 | O=c1c2nc(OCc3ccc(F)cc3)ccc2ncn1C1CC1 | inconclusive: 79.4 µM [inhibitor, full curve, poor fit] | –
36 | C=CCN(CC=C)S(=O)(=O)c1ccc(NC(=S)NC(=O)c2ccc(-c3ccccc3)cc2)cc1 | active: 3.16 µM | –
37 | O=C(NC(=S)Nn1cnc2c(cnn2-c2ccccc2)c1=O)c1ccc(Cl)cc1 | inconclusive: 39.8 µM [inhibitor, partial curve, poor fit] | –
38 | COc1cccc(CNc2cccc3cccnc23)c1O | inconclusive: 35.5 µM [inhibitor, partial curve, poor fit] | –
39 | O=C1OC(/C(=C\Nc2cc(Cl)ccc2O)[N+](=O)[O-])c2ccccc21 (stereo not given) | inconclusive: 70.8 µM [inhibitor, partial curve, poor fit] | –
40 | Cc1cc(=O)c2c(O)c3c(O)cc(O)c4c5c(O)cc(O)c6c(O)c7c(=O)cc(C)c8c1c2c(c34)c(c65)c78 | inconclusive: 39.8 µM [inhibitor, partial curve, poor fit] and inconclusive: 89.1 µM [inhibitor, single point] | –
